The name of at least one read-out is uncertain.
Test system: splenic T-cells (mouse T lymphocytes)
Assay: T-cell proliferation assay (ionomycin + PMA induced T-cell stimulation, tritiated thymidine uptake)
Assay type: cell-based, mouse (C57Bl/6)
Settings: series of 5 additional experiments, individual values
Description: The principle of this assay is to measure the proliferation of mouse T lymphocytes stimulated with the combination of ionomycin plus PMA.
Cells were pelleted by centrifugation at 1500 rpm for 8 minutes. Contaminating red cells were removed by treating the pellet with ammonium chloride lysing buffer (GIBCO) for 2 minutes at 4° C. Cold medium was added and cells were again centrifuged at 1500 rpm for 8 minutes. T lymphocytes were then isolated by separation of the cell suspension on nylon wool columns as follows: Nylon wool columns were prepared by packing approximately 4 grams of washed and dried nylon wool into 20 ml plastic syringes. The columns were sterilized by autoclaving at 250° F. for 30 minutes. Nylon wool columns were wetted with warm (37° C.) culture medium and rinsed with the same medium. Washed spleen cells resuspended in warm medium were slowly applied to the nylon wool. The columns were then incubated in an upright position at 37° C. for 1 hour. […]
The cell suspension was immediately distributed into 96 well flat-bottom microculture plates (Costar) at 200 μl/well. […] Radioactivity of filter discs corresponding to individual wells was measured by standard liquid scintillation counting methods (Betacounter). Mean counts per minute of replicate wells were calculated and the results expressed as percent inhibition of tritiated thymidine uptake (proliferation) as follows: [formula]

Compound: CC[C@@H]1C=C2COC1(O)C[C@H](O)[C@@H](C)[C@@H](/C(C)=C/[C@@H]1CC[C@@H](O)[C@H](OC)C1)OC(=O)[C@@H]1CCCCN1C(=O)C(=O)[C@]1(O)O[C@H]([C@@H](OC)C[C@@H](C)C2)[C@@H](OC)C[C@H]1C [Compound I]
- IC50, additional experiments: 1570 µg/mL
